Laboratory results as given in US20040186072A1, “Use of esters of long-chain fatty acids for treatment of autoimmune diseases” (priority 2001, published 2004).
Some of these results come from one statement about several compounds together.

Test system: EAE induced by PLP 139-151 peptide in SJL/J mice
Test: EAE induced by PLP 139-151/CFA in SJL/J mice, clinical score 0-5
Type: in vivo
Settings: Example 4: not further treated after first course, FIG. 4B

CCCCCCCC/C=C\CCCCCCCC(=O)OCC [EOA, ethyl oleate]
mean maximal clinical score, fully recovered subgroups (EOA-F, IFA-F): < 0.5
